# Some of the results follow. Shown are side measurements of this screen, not its main read-out; they come without a call. Most of these compounds were active or inconclusive in the main read-out, so they are no random draw. Words in brackets tell the shape of the fitted curve; partial curves, single points and poor fits give uncertain potencies.
# Experiment: qHTS Assay for Lipid Storage Modulators in Drosophila S3 Cells;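 as to cell number change: cells counted by Cell Tracker Red CMTPX staining in the red channel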
# Conditions: BODIPY lipid droplet fluorescence, 18-24 h; for cell number change: measured here: cell count max response, cells fed with added oleic acid
# Method in brief: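 Drosophila S3 cells loaded with oleic acid (400 uM, as added) and compounds at several concentrations; lipid droplets imaged by 488-nm laser-scanning cytometry, 500–530 nm intensity and object ratio to cell channel. Percent activity normalized to 20 uM Triacsin C.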
# [1] = measured here: lipid fluorescence (Fed channel) AC50, cells fed with added oleic acid
# [2] = measured here: cell number channel AC50, cells fed with added oleic acid
SMILES,cell number change [%],AC50 [1],AC50 [2]
CN1CCCC(OC(=O)c2cc(Br)ccc2Cl)C1 (stereo not drawn),21.7,–,–
CCc1ccc(N(CC(=O)NC2CC2)S(=O)(=O)c2ccc(C)cc2)cc1,17.4,"0.00411 µM [rising, full curve, poor fit]",–
COCCC(=O)N1CCCC(C(=O)c2ccc(C(F)(F)F)cc2)C1 (stereo not drawn),-2.36,"1.16 µM [rising, single point]",–
CN(C)CCCN(C(=O)CCOc1ccccc1)c1nc2c(F)cccc2s1,-81.2,"16.4 µM [falling, partial curve]","29.1 µM [falling, single point]"
NNc1nc2c(Cl)cccc2s1,350,–,"0.58 µM [rising, single point]"
COCCN(Cc1cc2cc(C)ccc2[nH]c1=O)S(=O)(=O)c1ccc(Cl)cc1,-14.1,–,–
CCOC(=O)c1sc(NC(=O)CSc2nc3c(cc2C#N)CCCCC3)c(C#N)c1C,-1.46,"0.146 µM [falling, full curve]",–
Cc1cccc(OCCOC(=O)Nc2ccccc2)c1,4.32,–,–
COc1cc(OC)cc(C(=O)Nc2sc3c(c2C(N)=O)CCC3)c1,-1.21,"5.8 µM [falling, partial curve, poor fit]",–
Cc1ccccc1NS(=O)(=O)CCCCC(Cl)(Cl)Cl,-17.1,"29.1 µM [falling, single point]",–
O=C1C(Cc2ccccc2)Nc2ncnc(N3CCOCC3)c2N1Cc1ccc(Br)cc1 (stereo not drawn),5.28,"0.291 µM [rising, full curve]",–
CCCCNC(=O)CS(=O)Cc1nc(-c2cccc(Cl)c2)oc1C (stereo not drawn),47.3,–,"29.1 µM [rising, single point]"
O=C(CNc1ccccc1-c1ccccc1)NCc1ccccc1,20.6,"14.6 µM [rising, single point]",–
Cn1c(NC(=O)C2CC2)cc(=O)n(C)c1=O,68,"29.1 µM [rising, single point]","29.1 µM [rising, single point]"
C=CCn1cnc2scc(-c3ccccc3)c2c1=O,-6.69,–,"0.731 µM [falling, single point]"
COc1ccc(CN(C(=O)c2cc3ccccc3oc2=O)C2CCS(=O)(=O)C2)cc1 (stereo not drawn),-12,"0.82 µM [falling, full curve, poor fit]","0.164 µM [falling, full curve, poor fit]"
CC(NC(=O)c1ccccc1F)C(=O)O (stereo not drawn),-18.4,"0.103 µM [falling, full curve, poor fit]",–
CC(=O)Nc1ccc(NC(=O)CCc2c(C)noc2C)cc1,-20.7,–,–
CCOc1ccc(NC(=O)Nc2nnc(CC)s2)cc1,0.356,–,–

SMILES,cell number change [%],AC50 [1],AC50 [2]
Cc1cc(C)n(C(=O)COc2c(C)cccc2C)n1,-165,"29.1 µM [falling, single point]","29.1 µM [falling, single point]"
CN(C(=O)COc1ccc(Oc2ccccc2)cc1)C1CCS(=O)(=O)C1 (stereo not drawn),18.5,"0.231 µM [rising, full curve, poor fit]","6.51 µM [rising, single point]"
CCC(C)(C)n1nnnc1C(c1cc2ccc(OC)cc2[nH]c1=O)N1CCc2ccccc21 (stereo not drawn),-31.2,"0.731 µM [rising, full curve]","20.6 µM [falling, partial curve]"
CCCn1cc(S(=O)(=O)CC(=O)Nc2ccc(OCC)cc2)c2ccccc21,242,"14.6 µM [rising, partial curve]","13 µM [rising, partial curve]"
CCC1CCCCN1CCCNC(=O)c1ccc(CS(=O)(=O)c2ccccc2C)o1 (stereo not drawn),93.1,"29.1 µM [rising, single point]","29.1 µM [rising, single point]"
Cc1cccc(C)c1OCCSc1nc2ccccc2n1CC(=O)O,15,"23.1 µM [rising, single point]",–
Cc1ccc(Sc2ccc([N+](=O)[O-])cc2[N+](=O)[O-])nc1,0.656,"0.0231 µM [falling, full curve, poor fit]","0.461 µM [falling, full curve, poor fit]"
CC(=O)NS(=O)(=O)c1ccc(NC(=O)c2ccc(Cl)cc2[N+](=O)[O-])cc1,39.9,"1.84 µM [rising, full curve, poor fit]",–
CCn1c(C)nc2cc(C(=O)NNC(=S)NC(=O)c3ccccc3)ccc21,76.1,–,–
O=S(=O)(NCCc1ccncc1)c1ccc(S(=O)(=O)N2CCCCCC2)cc1,-14.6,–,–
Cc1ccc(NC(=O)c2cn(-c3cccc(C)n3)cn2)cc1,-16.3,"0.00366 µM [falling, full curve, poor fit]",–
CN(C(=O)COC(=O)c1cc2ccccc2cc1O)c1c(N)n(Cc2ccccc2)c(=O)[nH]c1=O,-39.6,"0.291 µM [falling, partial curve, poor fit]","29.1 µM [falling, single point]"
CC(C)C(=O)Nc1nnc(Cc2c[nH]c3ccccc23)s1,11.5,–,–
COc1ccc(-c2cnc(N)n2CC2CCCO2)cc1 (stereo not drawn),9.55,–,"0.92 µM [rising, partial curve, poor fit]"
CCOC(=O)c1c(NC(=O)C2=C(C)NC(=S)NC2c2ccc(CC)cc2)sc(C)c1C (stereo not drawn),12.1,–,–
Cc1nn(-c2ccccc2)c2ncc(C(=O)c3cc(Cl)ccc3O)cc12,-27,–,"0.013 µM [falling, full curve, poor fit]"
CCOC(=O)Cc1csc(NS(=O)(=O)c2ccc(F)cc2)n1,-14.5,–,–
CC(=O)Nc1ccc(S(=O)(=O)NNC(=O)COc2ccc(C(C)(C)C)cc2)cc1,-38.9,"29.1 µM [falling, single point]","25.9 µM [falling, partial curve]"
CCCN(C(=O)c1ccc(S(=O)(=O)N2CCCC2)cc1)C1CCS(=O)(=O)C1 (stereo not drawn),-10.8,"0.461 µM [falling, full curve]","0.731 µM [falling, single point]"

# Complete entries, looked up by structure. Order of values: cell number change [%]	AC50 [1]	AC50 [2]
# CN1CCCC(OC(=O)c2cc(Br)ccc2Cl)C1 (stereo not drawn) is listed with 21.7	–	–
# CCC(C)(C)n1nnnc1C(c1cc2ccc(OC)cc2[nH]c1=O)N1CCc2ccccc21 (stereo not drawn) is listed with -31.2	0.731 µM [rising, full curve]	20.6 µM [falling, partial curve]
# CCOC(=O)c1sc(NC(=O)CSc2nc3c(cc2C#N)CCCCC3)c(C#N)c1C is listed with -1.46	0.146 µM [falling, full curve]	–
